Laboratory results as given in patent US11225470B2, “Tetrazolinone compounds and its use as pest control agents” (SUMITOMO CHEMICAL COMPANY, LIMITED, priority 2016, dated 2022).
Some of these results come from one statement about several compounds together.

Columns and labels:
Assay type in all cases: in vivo
[1] = tested on: barley net blotch fungi (Pyrenophora teres); assay: barley net blotch test; conditions: 200 ppm foliar spray, inoculation after 2 days; barley cv MIKAMO GOLDEN
[2] = tested on: kidney bean sclerotinia rot fungi (Sclerotinia sclerotiorum); assay: kidney bean sclerotinia rot test; conditions: kidney bean cv NAGAUZURA SAITO, observed after four days
[3] = tested on: wheat leaf blotch fungi (Septoria tritici); assay: wheat leaf blotch test, spraying after inoculation; conditions: 200 ppm foliar spray 3 days after inoculation; wheat cv APOGEE
[4] = tested on: wheat leaf blotch fungi (Septoria tritici); assay: wheat leaf blotch test, spraying before inoculation; conditions: inoculation after 4 days
[5] = tested on: barley scald fungi (Rhynchosporium secalis); assay: barley scald test; conditions: inoculation after 2 days, barley cv NISHINOHOSHI
[6] = tested on: wheat brown rust fungi (Puccinia recondita); assay: wheat brown rust test; conditions: inoculation after 5 days, wheat cv SHIROGANE
[7] = tested on: soybean rust fungi (Phakopsora pachyrhizi); assay: soybean rust test, spraying after inoculation; conditions: 200 ppm foliar spray 3 days after inoculation; soybean cv Kurosengoku; observed 8 days after spraying
[8] = tested on: soybean rust fungi (Phakopsora pachyrhizi); assay: soybean rust test, spraying before inoculation; conditions: 200 ppm foliar spray, inoculation after 4 days; soybean cv Kurosengoku
[9] = tested on: cucumber downy mildew fungi (Pseudoperonospora cubensis); assay: cucumber downy mildew test; conditions: 200 ppm foliar spray, inoculation after 1 day; cucumber cv SAGAMIHANJIRO
[10] = 200 ppm foliar spray, wheat cv APOGEE
[11] = 500 ppm foliar spray, wheat cv Apogee

CCC(=NN=C(C)c1cc2ccccc2s1)OCc1c(C)cccc1-n1nnn(C)c1=O [1-3]
≤ 30%: lesion area compared to the lesion area in an untreated barley [1] | lesion area compared to the lesion area in an untreated kidney bean ([2]; 200 ppm foliar spray) | lesion area compared to the lesion area in an untreated kidney bean ([2]; 500 ppm foliar spray) | lesion area compared to the lesion area in an untreated wheat [3] | lesion area compared to the lesion area in an untreated wheat [4, 10] | lesion area compared to the lesion area in an untreated wheat [4, 11] | lesion area compared to the lesion area in an untreated barley ([5]; 200 ppm foliar spray) | lesion area compared to the lesion area in an untreated barley ([5]; 500 ppm foliar spray) | lesion area compared to the lesion area in an untreated wheat ([6]; 200 ppm foliar spray) | lesion area compared to the lesion area in an untreated soybean [7] | lesion area compared to the lesion area in an untreated soybean [8]

CCC(=NN=C(C)c1nc2ccccc2s1)OCc1c(C)cccc1-n1nnn(C)c1=O [1-5]
≤ 30%: lesion area compared to the lesion area in an untreated barley [1] | lesion area compared to the lesion area in an untreated kidney bean ([2]; 200 ppm foliar spray) | lesion area compared to the lesion area in an untreated kidney bean ([2]; 500 ppm foliar spray) | lesion area compared to the lesion area in an untreated wheat [3] | lesion area compared to the lesion area in an untreated cucumber [9] | lesion area compared to the lesion area in an untreated wheat [4, 10] | lesion area compared to the lesion area in an untreated wheat [4, 11] | lesion area compared to the lesion area in an untreated barley ([5]; 500 ppm foliar spray) | lesion area compared to the lesion area in an untreated wheat ([6]; 200 ppm foliar spray) | lesion area compared to the lesion area in an untreated wheat ([6]; 500 ppm foliar spray) | lesion area compared to the lesion area in an untreated soybean [7] | lesion area compared to the lesion area in an untreated soybean [8]

CCC(=NN=C(C)c1cnn(C)c1)OCc1c(C)cccc1-n1nnn(C)c1=O [1-9]
≤ 30%: lesion area compared to the lesion area in an untreated barley [1] | lesion area compared to the lesion area in an untreated wheat [3] | lesion area compared to the lesion area in an untreated wheat [4, 10] | lesion area compared to the lesion area in an untreated barley ([5]; 200 ppm foliar spray) | lesion area compared to the lesion area in an untreated wheat ([6]; 200 ppm foliar spray) | lesion area compared to the lesion area in an untreated soybean [7] | lesion area compared to the lesion area in an untreated soybean [8]

CC=CCON=C(C)C(C)=NN=C(CC)OCc1c(C)cccc1-n1nnn(C)c1=O [C-3]
≤ 30%: lesion area compared to the lesion area in an untreated barley [1] | lesion area compared to the lesion area in an untreated kidney bean ([2]; 500 ppm foliar spray) | lesion area compared to the lesion area in an untreated wheat [3] | lesion area compared to the lesion area in an untreated wheat [4, 10] | lesion area compared to the lesion area in an untreated wheat [4, 11] | lesion area compared to the lesion area in an untreated barley ([5]; 200 ppm foliar spray) | lesion area compared to the lesion area in an untreated barley ([5]; 500 ppm foliar spray) | lesion area compared to the lesion area in an untreated wheat ([6]; 200 ppm foliar spray) | lesion area compared to the lesion area in an untreated wheat ([6]; 500 ppm foliar spray) | lesion area compared to the lesion area in an untreated soybean [7] | lesion area compared to the lesion area in an untreated soybean [8]

CCC(=NN=C(C)C(C)=NOCc1ccc(C)cc1)OCc1c(C)cccc1-n1nnn(C)c1=O [C-8]
≤ 30%: lesion area compared to the lesion area in an untreated barley [1] | lesion area compared to the lesion area in an untreated kidney bean ([2]; 200 ppm foliar spray) | lesion area compared to the lesion area in an untreated kidney bean ([2]; 500 ppm foliar spray) | lesion area compared to the lesion area in an untreated wheat [3] | lesion area compared to the lesion area in an untreated wheat [4, 10] | lesion area compared to the lesion area in an untreated wheat [4, 11] | lesion area compared to the lesion area in an untreated barley ([5]; 200 ppm foliar spray) | lesion area compared to the lesion area in an untreated barley ([5]; 500 ppm foliar spray) | lesion area compared to the lesion area in an untreated wheat ([6]; 200 ppm foliar spray) | lesion area compared to the lesion area in an untreated wheat ([6]; 500 ppm foliar spray) | lesion area compared to the lesion area in an untreated soybean [7] | lesion area compared to the lesion area in an untreated soybean [8]

CCC(=NN=C(C)C(C)=NOCc1cccc(C)c1)OCc1c(C)cccc1-n1nnn(C)c1=O [C-11]
≤ 30%: lesion area compared to the lesion area in an untreated barley [1] | lesion area compared to the lesion area in an untreated kidney bean ([2]; 500 ppm foliar spray) | lesion area compared to the lesion area in an untreated wheat [3] | lesion area compared to the lesion area in an untreated wheat [4, 10] | lesion area compared to the lesion area in an untreated wheat [4, 11] | lesion area compared to the lesion area in an untreated barley ([5]; 500 ppm foliar spray) | lesion area compared to the lesion area in an untreated wheat ([6]; 200 ppm foliar spray) | lesion area compared to the lesion area in an untreated wheat ([6]; 500 ppm foliar spray) | lesion area compared to the lesion area in an untreated soybean [7] | lesion area compared to the lesion area in an untreated soybean [8]
